Article PMC5218534, “Structural and biochemical analyses of the DEAD-box ATPase Sub2 in association with THO or Yra1” (eLife, 2017)

Target: T1, Tho2 (residues 1-1207), subunit of THO* (S. cerevisiae) (UniProt P53552)
T1 sequence: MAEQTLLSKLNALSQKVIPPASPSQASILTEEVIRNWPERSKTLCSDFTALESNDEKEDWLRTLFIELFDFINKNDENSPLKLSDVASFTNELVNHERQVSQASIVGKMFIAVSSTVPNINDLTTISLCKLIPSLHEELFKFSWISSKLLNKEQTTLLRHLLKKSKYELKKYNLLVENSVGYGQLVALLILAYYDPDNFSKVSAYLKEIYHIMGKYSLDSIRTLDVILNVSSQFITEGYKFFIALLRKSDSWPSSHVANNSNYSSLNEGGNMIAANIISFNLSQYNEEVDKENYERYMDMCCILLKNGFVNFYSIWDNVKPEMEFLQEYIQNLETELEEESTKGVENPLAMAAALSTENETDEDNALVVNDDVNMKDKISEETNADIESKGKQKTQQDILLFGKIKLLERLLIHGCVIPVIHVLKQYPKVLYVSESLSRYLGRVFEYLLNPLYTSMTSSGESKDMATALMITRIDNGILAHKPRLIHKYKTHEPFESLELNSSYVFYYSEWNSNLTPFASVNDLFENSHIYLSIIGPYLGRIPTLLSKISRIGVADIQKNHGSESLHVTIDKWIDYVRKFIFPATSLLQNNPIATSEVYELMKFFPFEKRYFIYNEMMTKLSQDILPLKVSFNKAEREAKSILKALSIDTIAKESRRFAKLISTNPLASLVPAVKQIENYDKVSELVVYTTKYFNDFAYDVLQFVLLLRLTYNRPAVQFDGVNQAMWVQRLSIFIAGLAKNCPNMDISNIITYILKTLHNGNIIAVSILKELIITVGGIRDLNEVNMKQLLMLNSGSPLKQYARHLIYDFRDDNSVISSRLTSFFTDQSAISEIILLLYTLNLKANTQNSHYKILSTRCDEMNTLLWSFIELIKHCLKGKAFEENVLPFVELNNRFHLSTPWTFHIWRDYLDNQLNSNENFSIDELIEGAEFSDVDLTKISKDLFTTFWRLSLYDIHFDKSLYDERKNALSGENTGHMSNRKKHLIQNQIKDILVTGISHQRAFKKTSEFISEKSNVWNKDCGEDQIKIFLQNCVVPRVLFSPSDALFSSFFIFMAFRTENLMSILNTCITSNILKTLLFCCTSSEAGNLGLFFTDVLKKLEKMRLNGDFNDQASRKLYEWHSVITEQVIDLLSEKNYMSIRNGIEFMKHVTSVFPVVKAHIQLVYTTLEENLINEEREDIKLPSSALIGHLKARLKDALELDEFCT
Test: co-purification of co-expressed subunits (Ni2+-affinity, mono Q, Superose 6 size exclusion); THO* subunits co-expressed in High-Five cells; Tho2 and Tex1 with N-terminal His tags, Hpr1, Mft1 and Thp2 untagged; 4 °C; SDS-PAGE with Coomassie stain of the purified complex

## Saccharomyces bayanus Tex1 (residues 1-380), subunit of THO* (S. bayanus) (domain or fragment)
  binding: binds

No constants are given. Whether binding was seen depends on the method and setting. Binding seen in cells or lysates may run through a third protein. Binding can be weak; no strength is given.
